doi:10.1101/2024.07.15.603576
Results are given in words; binding and its absence hold for the method and conditions named. Binding can be weak; no strength is given. For part of these data: In cells and extracts the contact can be indirect. For part of these data: Sequences can lack the tags named with a protein.

Tests used:
[1] = molecular target: SlEIL3 in pGBKT7 (pGBKT7-EIL3) (tomato (Solanum lycopersicum)); experiment: two-hybrid
[2] = molecular target: EIL3-GFP (tomato (Solanum lycopersicum)); experiment: co-IP
[3] = molecular target: cLUC-SlEIL3 (tomato (Solanum lycopersicum)); experiment: split reporter

B1: SlNAP2 in pGADT7 (pGADT7-NAP2) (protein, UniProt K4BNG7 1-275)
chain: MVGKNNSNHLPPGFRFHPTDEELIMYYLRNQATSKPCPSSIIPEVDVYKFDPWELPEKTEFGEKEWYFFTPRDRKYPNGVRPNRAAVSGYWKATGTDKGIYSGTKYVGIKKALVFYKGKPPKGIKTDWIMHEYRLSESRTQPTRPNGSMRLDDWVLCRIYKKKNLERAIEMMKVEEDTQEPQIMSVTNPIHEVVASNGQQTLKLPRTCSLSHLLEMDYFGSISQLFDDNNSYNTISQNNTLMTNVNGYVMPHQAMEKFQLGEVSQISMNPSYQFQ
For B1, the binding [1] was “binds”.

B2: NAP2-HA (protein, UniProt K4BNG7 1-275)
chain: B1 chain
For B2, the binding [2] was “binds”.

B3: SlNAP2-nLUC (protein, UniProt K4BNG7 1-275)
chain: B1 chain
B3 was tested, and the binding [3] was “binds”.
